PubChem BioAssay AID1224831 | NIAID – 2016

- Screen: 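Genes that support or restrain LPS-induced TNF-alpha reporter activity in macrophage-like cells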 (follow-up of hits)
- System: human THP-1 B5 monocytic leukaemia cells carrying a TNF promoter luciferase reporter, made macrophage-like with PMA
- Knock-down reagent: single siRNA against human genes, 50 nM
- Timing: about 68 h of knock-down, then 4 h LPS
- Conditions: LPS (Salmonella minnesota, TLR-grade) at 10 ng/ml for 4 h; PMA 5 ng/ml present during knock-down
- Detection: 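Firefly to renilla luciferase ratio of a TNF promoter reporter after 4 h LPS, scaled to plate median, turned into robust z-score, averaged over replicates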
- Direction: TNF reporter z-score: higher = stronger LPS-induced TNF reporter signal; z-score, median over gene's siRNAs: higher = stronger TNF reporter signal across the gene's siRNAs
- Hit rule: 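Active when the replicate mean z-score is about -1 or lower, or about 1.5 or higher; lowered and raised TNF reporter signal both count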
- Calls: active = changed TNF reporter (either direction); inactive = little change
Here is a random part of about 3,500 deposited reagents. 731 of them (21%) were called active. 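Active means either lowered or raised reporter signal; the gene-median score did not drive the per-siRNA calls.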 A number with no mark means an inactive call. Reagents against one gene are numbered here.

TAS1R2 #1 gave TNF reporter z-score, replicate mean -0.9; z-score, median over gene's siRNAs -0.345.
For TAS1R2 #2 the deposit lists TNF reporter z-score, replicate mean -0.77; z-score, median over gene's siRNAs -0.345.
TAS1R2 #3 showed TNF reporter z-score, replicate mean -0.13; z-score, median over gene's siRNAs -0.345.
TAS1R2 #4 showed TNF reporter z-score, replicate mean 0.79; z-score, median over gene's siRNAs -0.345.
After knock-down of TAS1R2 #5, the screen gave TNF reporter z-score, replicate mean -0.56; z-score, median over gene's siRNAs -0.345.
Silencing of TAS1R2 #6 resulted in: TNF reporter z-score, replicate mean 0.1; z-score, median over gene's siRNAs -0.345.
Knock-down of XRCC4 #1 came out at: TNF reporter z-score, replicate mean 3.97 (active); z-score, median over gene's siRNAs 0.55.
XRCC4 #2 scored TNF reporter z-score, replicate mean 0.64; z-score, median over gene's siRNAs 0.55.
XRCC4 #3 showed TNF reporter z-score, replicate mean 1.12; z-score, median over gene's siRNAs 0.55.
With knock-down of XRCC4 #4 the results were TNF reporter z-score, replicate mean 0.46; z-score, median over gene's siRNAs 0.55.
Depletion of XRCC4 #5 gave: TNF reporter z-score, replicate mean -0.29; z-score, median over gene's siRNAs 0.55.
After knock-down of XRCC4 #6, the record shows TNF reporter z-score, replicate mean -1.59 (active); z-score, median over gene's siRNAs 0.55.
Silencing of APBB1IP #1 resulted in: TNF reporter z-score, replicate mean 0.55; z-score, median over gene's siRNAs -0.695.
After knock-down of APBB1IP #2, the record shows TNF reporter z-score, replicate mean -0.43; z-score, median over gene's siRNAs -0.695.
For APBB1IP #3, the entry reads TNF reporter z-score, replicate mean -2.03 (active); z-score, median over gene's siRNAs -0.695.
Depletion of APBB1IP #4 gave: TNF reporter z-score, replicate mean 0.53; z-score, median over gene's siRNAs -0.695.
Knock-down of APBB1IP #5 resulted in: TNF reporter z-score, replicate mean -0.96; z-score, median over gene's siRNAs -0.695.
With knock-down of APBB1IP #6, the record shows TNF reporter z-score, replicate mean -0.99; z-score, median over gene's siRNAs -0.695.
With knock-down of FKBP10 #1 the results were TNF reporter z-score, replicate mean -0.42; z-score, median over gene's siRNAs -0.26.
FKBP10 #2 showed TNF reporter z-score, replicate mean -0.22; z-score, median over gene's siRNAs -0.26.
For FKBP10 #3, the entry reads TNF reporter z-score, replicate mean 0.26; z-score, median over gene's siRNAs -0.26.
FKBP10 #4 scored TNF reporter z-score, replicate mean 0.18; z-score, median over gene's siRNAs -0.26.
With knock-down of FKBP10 #5 the results were TNF reporter z-score, replicate mean -0.77; z-score, median over gene's siRNAs -0.26.
With knock-down of FKBP10 #6 the results were TNF reporter z-score, replicate mean -0.3; z-score, median over gene's siRNAs -0.26.
For RAPGEF1 #1, the entry reads TNF reporter z-score, replicate mean 0.89; z-score, median over gene's siRNAs 0.805.
RAPGEF1 #2 showed TNF reporter z-score, replicate mean 0.78; z-score, median over gene's siRNAs 0.805.
RAPGEF1 #3 scored TNF reporter z-score, replicate mean 0; z-score, median over gene's siRNAs 0.805.
Knock-down of RAPGEF1 #4 resulted in: TNF reporter z-score, replicate mean 0.37; z-score, median over gene's siRNAs 0.805.
Depletion of RAPGEF1 #5 resulted in: TNF reporter z-score, replicate mean 1.27; z-score, median over gene's siRNAs 0.805.
RAPGEF1 #6 gave TNF reporter z-score, replicate mean 0.83; z-score, median over gene's siRNAs 0.805.
PVRIG #1 scored TNF reporter z-score, replicate mean -0.05; z-score, median over gene's siRNAs -0.11.
PVRIG #2 gave TNF reporter z-score, replicate mean -0.23; z-score, median over gene's siRNAs -0.11.
PVRIG #3 scored TNF reporter z-score, replicate mean 0.01; z-score, median over gene's siRNAs -0.11.
Depletion of PVRIG #4 resulted in: TNF reporter z-score, replicate mean -0.17; z-score, median over gene's siRNAs -0.11.
Silencing of PVRIG #5 resulted in: TNF reporter z-score, replicate mean -0.23; z-score, median over gene's siRNAs -0.11.
Against PVRIG #6, the values are TNF reporter z-score, replicate mean 1.63 (active); z-score, median over gene's siRNAs -0.11.
Against CDK14 #1, the values are TNF reporter z-score, replicate mean 0.34; z-score, median over gene's siRNAs 0.55.
After knock-down of CDK14 #2, the record shows TNF reporter z-score, replicate mean -0.64; z-score, median over gene's siRNAs 0.55.
For CDK14 #3, the values are TNF reporter z-score, replicate mean -0.16; z-score, median over gene's siRNAs 0.55.
Knock-down of CDK14 #4 came out at: TNF reporter z-score, replicate mean 0.78; z-score, median over gene's siRNAs 0.55.
CDK14 #5 scored TNF reporter z-score, replicate mean 0.76; z-score, median over gene's siRNAs 0.55.
Knock-down of CDK14 #6 came out at: TNF reporter z-score, replicate mean 2.12 (active); z-score, median over gene's siRNAs 0.55.
After knock-down of DIRAS3 #1, the record shows TNF reporter z-score, replicate mean -0.21; z-score, median over gene's siRNAs -0.325.
Knock-down of DIRAS3 #2 gave: TNF reporter z-score, replicate mean -0.31; z-score, median over gene's siRNAs -0.325.
With knock-down of DIRAS3 #3, the screen gave TNF reporter z-score, replicate mean -0.34; z-score, median over gene's siRNAs -0.325.
DIRAS3 #4 scored TNF reporter z-score, replicate mean -1.44 (active); z-score, median over gene's siRNAs -0.325.
DIRAS3 #5 gave TNF reporter z-score, replicate mean 3.27 (active); z-score, median over gene's siRNAs -0.325.
With knock-down of DIRAS3 #6, the record shows TNF reporter z-score, replicate mean -0.63; z-score, median over gene's siRNAs -0.325.
NMNAT2 #1 showed TNF reporter z-score, replicate mean -0.06; z-score, median over gene's siRNAs 1.4.
For NMNAT2 #2, the entry reads TNF reporter z-score, replicate mean -0.7; z-score, median over gene's siRNAs 1.4.
NMNAT2 #3 gave TNF reporter z-score, replicate mean 1.45; z-score, median over gene's siRNAs 1.4.
For NMNAT2 #4 the deposit lists TNF reporter z-score, replicate mean 1.8 (active); z-score, median over gene's siRNAs 1.4.
Knock-down of NMNAT2 #5 came out at: TNF reporter z-score, replicate mean 1.35; z-score, median over gene's siRNAs 1.4.
Knock-down of NMNAT2 #6 came out at: TNF reporter z-score, replicate mean 2.88 (active); z-score, median over gene's siRNAs 1.4.

Already shown: an excerpt of the list.
CDK14 #6: TNF reporter z-score, replicate mean = 2.12 (active); z-score, median over gene's siRNAs = 0.55
DIRAS3 #1: TNF reporter z-score, replicate mean = -0.21; z-score, median over gene's siRNAs = -0.325
DIRAS3 #2: TNF reporter z-score, replicate mean = -0.31; z-score, median over gene's siRNAs = -0.325
DIRAS3 #3: TNF reporter z-score, replicate mean = -0.34; z-score, median over gene's siRNAs = -0.325
DIRAS3 #4: TNF reporter z-score, replicate mean = -1.44 (active); z-score, median over gene's siRNAs = -0.325
